These are yes or no findings as the source states them, for the method shown. Binding seen in cells or lysates may run through a third protein. Some results given as binding are weak or reduced against the parent protein; the word gives no strength. Tags and fused reporters may be left off the sequences shown.

In experiment [1] the target is T1, IAA3 fused to the C-terminal fragment of luciferase (c-LUC) (Arabidopsis thaliana) (UniProt Q38822).
T1 sequence: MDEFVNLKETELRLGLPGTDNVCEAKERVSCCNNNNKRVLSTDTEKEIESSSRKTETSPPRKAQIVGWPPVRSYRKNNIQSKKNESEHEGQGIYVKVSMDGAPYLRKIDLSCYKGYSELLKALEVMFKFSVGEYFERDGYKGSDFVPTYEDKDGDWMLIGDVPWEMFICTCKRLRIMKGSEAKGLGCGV
Nature of the experiment: split reporter; firefly luciferase complementation imaging (LCI) in Arabidopsis protoplasts co-transformed with nLUC- and cLUC-tagged constructs, 12 to 16 h in darkness.

Experiment [2] has as its target T1, IAA3 fused to the C-terminal fragment of luciferase (c-LUC) (Arabidopsis thaliana). As to the kind of experiment: split reporter; firefly luciferase complementation imaging (LCI) in agroinfiltrated N. benthamiana leaves; PIFs on nLUC, IAA3 on cLUC; 1 mM luciferin.

B1: PIF5 fused to the N-terminal fragment of luciferase (n-LUC) (protein, UniProt Q84LH8 1-444)
chain: MEQVFADWNFEDNFHMSTNKRSIRPEDELVELLWRDGQVVLQSQARREPSVQVQTHKQETLRKPNNIFLDNQETVQKPNYAALDDQETVSWIQYPPDDVIDPFESEFSSHFFSSIDHLGGPEKPRTIEETVKHEAQAMAPPKFRSSVITVGPSHCGSNQSTNIHQATTLPVSMSDRSKNVEERLDTSSGGSSGCSYGRNNKETVSGTSVTIDRKRKHVMDADQESVSQSDIGLTSTDDQTMGNKSSQRSGSTRRSRAAEVHNLSERRRRDRINERMKALQELIPHCSRTDKASILDEAIDYLKSLQMQLQVMWMGSGMAAAAAAAASPMMFPGVQSSPYINQMAMQSQMQLSQFPVMNRSAPQNHPGLVCQNPVQLQLQAQNQILSEQLARYMGGIPQMPPAGNQMQTVQQQPADMLGFGSPAGPQSQLSAPATTDSLHMGKIG
As to B1, the binding entry in experiment [1] and in experiment [2] was “binds” in each case.

B2: PIF1 fused to the N-terminal fragment of luciferase (n-LUC) (protein, UniProt Q8GZM7 1-478)
chain: MHHFVPDFDTDDDYVNNHNSSLNHLPRKSITTMGEDDDLMELLWQNGQVVVQNQRLHTKKPSSSPPKLLPSMDPQQQPSSDQNLFIQEDEMTSWLHYPLRDDDFCSDLLFSAAPTATATATVSQVTAARPPVSSTNESRPPVRNFMNFSRLRGDFNNGRGGESGPLLSKAVVRESTQVSPSATPSAAASESGLTRRTDGTDSSAVAGGGAYNRKGKAVAMTAPAIEITGTSSSVVSKSEIEPEKTNVDDRKRKEREATTTDETESRSEETKQARVSTTSTKRSRAAEVHNLSERKRRDRINERMKALQELIPRCNKSDKASMLDEAIEYMKSLQLQIQMMSMGCGMMPMMYPGMQQYMPHMAMGMGMNQPIPPPSFMPFPNMLAAQRPLPTQTHMAGSGPQYPVHASDPSRVFVPNQQYDPTSGQPQYPAGYTDPYQQFRGLHPTQPPQFQNQATSYPSSSRVSSSKESEDHGNHTTG
Consider B2, for which the binding entry in experiment [1] and in experiment [2] was “binds” each time.

For the origin of these results see PMC7924758, “IAA3-mediated repression of PIF proteins coordinates light and auxin signaling in Arabidopsis” (PLoS Genetics, 2021).
